PubChem BioAssay AID1159578 – Peter MacCallum Cancer Centre – 2015

Assay: 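siRNA pools altering how lymphatic endothelial cells close a scratch wound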 (primary screen)
Cell system: human lymphatic endothelial cells
Reagents: siRNA pool against human genes, 40 nM
Timing: 48 h after transfection
Detection: 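High-content imaging of dye-stained cells in a scratch assay measures filled wound area and nuclei per well; duplicate means given as ratio to mock and robust z-score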
Reading the numbers: migration robust z-score: higher = faster migration into the scratch; nuclei per well: higher = more cells in the well
Rule for the call: 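Migration changed when robust z exceeds 2 or falls below -2 and mean nuclei number is at least 3300; otherwise not called changed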
Calls: active = migration changed; inactive = no migration change, or too few cells
Here is one part, drawn at random, of about 18,000 reagents tested. Of all reagents, about 1,030 (5.7%) were called active. 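Inactive calls also include pools with fewer than 3300 nuclei, whose migration was not assessed.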 The raw values are shown without normalisation. A number with no mark means an inactive call. Reagents against one gene are numbered here. Not all columns of the deposit are shown.

| Target gene | pool no. | migration robust z-score | nuclei per well, duplicate mean |
| --- | --- | --- | --- |
| FGF23 (fibroblast growth factor 23) | 1 | -0.26 | 4994 |
| CNRIP1 (cannabinoid receptor interacting protein 1) | 1 | -0.41 | 5679 |
| SRPX2 (sushi repeat containing protein X-linked 2) | 1 | -1.19 | 6837 |
| SLC11A2 | 1 | 0.36 | 4966 |
| OR2A4 (olfactory receptor family 2 subfamily A member 4) | 1 | 0.6 | 5734 |
| TFF3 (trefoil factor 3) | 1 | 0.99 | 6606 |
| GKN1 (gastrokine 1) | 1 | -1 | 3854 |
| PAFAH1B1 | 1 | -0.16 | 5108 |
| ERCC6L2 (ERCC excision repair 6 like 2) | 1 | 0.82 | 5832 |
| ERCC6L2 (ERCC excision repair 6 like 2) | 2 | 0.62 | 4927 |
| SSTR1 (somatostatin receptor 1) | 1 | -0.02 | 5332 |
| CYP4B1 (cytochrome P450 family 4 subfamily B member 1) | 1 | -0.86 | 5730 |
| HLA-DMB (major histocompatibility complex, class II, DM beta) | 1 | 0.2 | 5058 |
| THAP7 (THAP domain containing 7) | 1 | -1.48 | 5009 |
| GAS8-AS1 (GAS8 antisense RNA 1) | 1 | -0.58 | 5075 |
| YAE1 (YAE1 maturation factor of ABCE1) | 1 | -0.02 | 6777 |
| GAD2 (glutamate decarboxylase 2) | 1 | -0.99 | 5302 |
| VPS35L (VPS35 endosomal protein sorting factor like) | 1 | -0.5 | 5826 |
| TMPRSS9 (transmembrane serine protease 9) | 1 | -0.42 | 4332 |
| CALML3 (calmodulin like 3) | 1 | 0.58 | 5682 |
| ZNF792 (zinc finger protein 792) | 1 | 1.03 | 5230 |
| RNF214 (ring finger protein 214) | 1 | 0.76 | 6356 |
| LRP4 (LDL receptor related protein 4) | 1 | 1.44 | 5027 |
| C8orf82 (chromosome 8 open reading frame 82) | 1 | 1.19 | 6109 |
| ALDH3B1 (aldehyde dehydrogenase 3 family member B1) | 1 | -0.93 | 3821 |
| TRIM64C (tripartite motif containing 64C) | 1 | 0.26 | 5141 |
| TRIM64C (tripartite motif containing 64C) | 2 | -0.26 | 4826 |
| TPP1 (tripeptidyl peptidase 1) | 1 | 0.8 | 5856 |
| CEP164 (centrosomal protein 164) | 1 | 1.17 | 6285 |
| SLC34A2 | 1 | -0.39 | 4766 |
| ADGRG6 (adhesion G protein-coupled receptor G6) | 1 | -0.05 | 5633 |
| FDCSP (follicular dendritic cell secreted protein) | 1 | -1.18 | 6149 |
| RPL36A (ribosomal protein L36a) | 1 | -0.52 | 6064 |
| BBS12 (Bardet-Biedl syndrome 12) | 1 | 0.7 | 5298 |
| CSE1L (chromosome segregation 1 like) | 1 | -1.04 | 4492 |
| PHF5A (PHD finger protein 5A) | 1 | -1.09 | 5118 |
| MORF4L2 (mortality factor 4 like 2) | 1 | 0.55 | 5325 |
| UAP1L1 (UDP-N-acetylglucosamine pyrophosphorylase 1 like 1) | 1 | 0.42 | 6734 |
| SLC12A9 | 1 | -0.1 | 4692 |
| TARBP1 (tRNA guanosine 2 -O-methyltransferase TARBP1) | 1 | 0.24 | 7024 |
| YOD1 (YOD1 deubiquitinase) | 1 | 0.12 | 5398 |
| AGPAT2 (1-acylglycerol-3-phosphate O-acyltransferase 2) | 1 | -0.12 | 6991 |
| NUP153 (nucleoporin 153) | 1 | 0.39 | 6016 |
| GAD1 (glutamate decarboxylase 1) | 1 | 1.12 | 5011 |
| ELP4 (elongator acetyltransferase complex subunit 4) | 1 | -0.4 | 6515 |
| ATP13A4 (ATPase 13A4) | 1 | -0.46 | 6415 |
| LRRC8E (leucine rich repeat containing 8 VRAC subunit E) | 1 | 1.28 | 5991 |
| CNTNAP4 (contactin associated protein family member 4) | 1 | 0.16 | 6356 |
| DYNLT2B (dynein light chain Tctex-type 2B) | 1 | -0.55 | 7283 |
| MGAM (maltase-glucoamylase) | 1 | 0 | 6302 |
| ARID5A (AT-rich interaction domain 5A) | 1 | -1.23 | 5706 |
| HELZ2 (helicase with zinc finger 2) | 1 | 1.12 | 5798 |
| PGA3 (pepsinogen A3) | 1 | -0.2 | 5084 |
| SPACA4 (sperm acrosome associated 4) | 1 | -0.26 | 5382 |
| AP5M1 (adaptor related protein complex 5 subunit mu 1) | 1 | 0.56 | 5920 |
| CKAP2L (cytoskeleton associated protein 2L) | 1 | 0.76 | 4118 |
| STX3 (syntaxin 3) | 1 | 0.1 | 5426 |

Reformatted: entries from further up
TRIM64C (tripartite motif containing 64C) #1
- migration robust z-score: 0.26
- nuclei per well, duplicate mean: 5141

TRIM64C (tripartite motif containing 64C) #2
- migration robust z-score: -0.26
- nuclei per well, duplicate mean: 4826

TPP1 (tripeptidyl peptidase 1)
- migration robust z-score: 0.8
- nuclei per well, duplicate mean: 5856

CEP164 (centrosomal protein 164)
- migration robust z-score: 1.17
- nuclei per well, duplicate mean: 6285

SLC34A2
- migration robust z-score: -0.39
- nuclei per well, duplicate mean: 4766
